# Measurements published in the supplement of paper PMC12823440, “Inhibitors supercharge kinase turnover through native proteolytic circuits” (Nature, 2025).
# The chains behind the UniProt entries cited, without tags or fusion partners.
# UniProt P06241, whole entry, looked up: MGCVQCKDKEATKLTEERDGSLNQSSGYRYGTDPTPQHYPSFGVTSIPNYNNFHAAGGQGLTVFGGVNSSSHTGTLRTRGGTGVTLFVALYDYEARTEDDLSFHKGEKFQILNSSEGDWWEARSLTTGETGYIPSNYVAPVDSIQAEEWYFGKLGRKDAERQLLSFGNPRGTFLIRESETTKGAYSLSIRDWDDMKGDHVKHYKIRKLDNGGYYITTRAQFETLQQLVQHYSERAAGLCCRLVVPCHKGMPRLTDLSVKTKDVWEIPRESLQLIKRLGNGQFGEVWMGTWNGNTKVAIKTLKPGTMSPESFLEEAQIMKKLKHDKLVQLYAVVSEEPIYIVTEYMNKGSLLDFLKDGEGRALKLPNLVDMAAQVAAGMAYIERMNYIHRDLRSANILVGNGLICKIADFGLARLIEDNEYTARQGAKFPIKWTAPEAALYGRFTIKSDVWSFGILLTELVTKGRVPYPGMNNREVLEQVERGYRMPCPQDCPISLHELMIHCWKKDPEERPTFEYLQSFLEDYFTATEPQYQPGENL
# Counter-ions that a name gives are not always drawn. The list shows a part of the results. Hit calls seldom repeat between salt and free forms of one compound.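 In K562 cells expressing nanoluciferase-fused kinases, luminescence was recorded at 4 h intervals between 2 and 18 h, normalized as percent of control with DMSO at 100% and a positive control at 0%. A significant (2 sigma) signal drop marks a time point as decreased. The authors' rule for a hit is not shown and takes in more than the number of time points.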
# Molecular target: FYN (UniProt P06241)
# Assay: number of time points (of 5) at which kinase-Nluc abundance scored as decreased, DMSO-normalised (count); higher = more persistent destabilization
# Conditions: K562; 2-18 h
row,SMILES,number of time points
1,C=C(CCC=C(C)C)[C@H]1CC[C@]2(C)[C@@H]1[C@H](O)C[C@@H]1[C@@]3(C)CC[C@H](O[C@@H]4O[C@H](CO)[C@@H](O)[C@H](O)[C@H]4O[C@@H]4O[C@H](CO)[C@@H](O)[C@H](O)[C@H]4O)C(C)(C)[C@@H]3CC[C@]12C [Ginsenoside Rk1] (10 µM),0
2,CCn1c(=O)c(-c2ccc(-c3cncs3)cc2Cl)cc2cnc(Nc3ccc(N4CCN(C)CC4)cc3)nc21 (2.5 µM),0
3,Nc1nccc(Oc2ccc(NC(=O)c3cn(COP(=O)(O)O)cc(-c4ccc(F)cc4)c3=O)cc2F)c1Cl (10 µM),0
4,Cc1cc(-c2cc(OC(=O)c3ccccc3)ccc2Cl)cc2nnc(Nc3ccc(OCCN4CCCC4)cc3)nc12 (0.5 µM),0
5,OC[C@H]1O[C@@H](Oc2cc3c(O)cc(O)cc3[o+]c2-c2cc(O)c(O)c(O)c2)[C@H](O)[C@@H](O)[C@@H]1O [Delphinidin 3-glucoside (chloride)] (10 µM),0
6,O=C(/C=C/c1ccc(O)c(O)c1)c1ccc(O[C@@H]2O[C@H](CO)[C@@H](O)[C@H](O)[C@H]2O)c(O)c1O [Marein] (10 µM),0
7,O=C1Nc2nc(-c3c(O)cccc3OCC3CC3)cc([C@@H]3CCCNC3)c2CO1 [Bay 65-1942 (hydrochloride)] (10 µM),3
8,CC(C)CN(CC(=O)N1CCN(CC(OCc2ccc3ccccc3c2)c2ccc(Cl)cc2Cl)CC1)CC(C)C (centres undefined) [LYN-1604 (dihydrochloride)] (2.5 µM),0
9,CCc1cc(O)c(F)cc1-c1ccc2c(-c3nc4c([nH]3)CN(C3CCN(C)CC3)CC4)n[nH]c2c1 [JAK-IN-5 (hydrochloride)] (2 µM),4
10,Cc1ccc(Nc2cc(-c3cccc(N4C(=O)c5ccccc5C4=O)c3)ncn2)cc1NS(C)(=O)=O (10 µM),0
11,C=C1C(=O)O[C@@H]2C[C@@]3(C)CCC[C@H](C)C3=C[C@H]12 [Alantolactone] (10 µM),0
12,C=C(C)C(=O)Nc1cccc(-c2ncnc3[nH]cc(C(=O)OCC)c23)c1 (10 µM),0
13,CNc1nc(Nc2cnn(C3CCN(C4COC4)CC3F)c2Cl)ncc1C(F)(F)F (centres undefined) (10 µM),0
14,Cc1cc(Nc2cc(Cl)nc(Oc3ccc([N+](=O)[O-])cc3)n2)n[nH]1 [Autophinib] (2.5 µM),0
15,CC(C)=CC[C@H](O)C1=CC(=O)c2c(O)ccc(O)c2C1=O [(-)-Alkannin] (2.5 µM),0
16,CNCc1ccccc1-c1csc([C@@H](C)Nc2nc(C)nc3cc(OC)c(OC)cc23)c1 (2.5 µM),0
17,COc1ncc(-c2nc(N3CCOCC3)nc3c(CN4CCC(C(C)(C)O)CC4)cc(F)cc23)cc1NS(C)(=O)=O [Linperlisib] (10 µM),0
18,O=C(Nc1ccc(F)cc1F)[C@H](NC(=S)Nc1cc(C(F)(F)F)cc(C(F)(F)F)c1)c1ccccc1 (2.5 µM),0
19,O=C1NC(=O)C(=Cc2ccc(-c3ccc(F)cc3)o2)S1 (stereo in doubt) (10 µM),0
20,CCOc1cc(C(=O)N2CCC(N3CCN(C)CC3)CC2)ccc1Nc1ncc2c(n1)N(C1CCCC1)c1ccccc1C(=O)N2C (10 µM),0

row,SMILES,number of time points
1,OC(COc1ccc(C(F)(F)F)cc1)CN(Cc1ccccc1)Cc1ccccc1 (centres undefined) (2.5 µM),0
2,C[C@@H]1C(=O)O[C@H](C)[C@H]1C[C@@H](O)[C@](C)(O)[C@H]1CC[C@@]2(O)C3=CC(=O)[C@@H]4C[C@@H](O)[C@@H](O)C[C@]4(C)[C@H]3CC[C@]12C [Cyasterone] (10 µM),0
3,Cc1c(CN2CCN(C(=O)[C@H](C)O)CC2)sc2c(N3CCOCC3)nc(-c3cnc(N)nc3)nc12 [Apitolisib] (10 µM),0
4,CC(C)(C)NC(=O)c1cncn1C1CCN(c2ccc(-c3nnc(C(F)(F)F)o3)cn2)CC1 (10 µM),0
5,NCc1ccc(Nc2ncc(F)c(Nc3ccccc3)n2)cc1 (10 µM),0
6,COC1(c2sc3c(N4CCOCC4)nc(-c4cnc(N)nc4)nc3c2C)COC1 (2.5 µM),0
7,COc1cc2c[n+](C)c3c4cc5c(cc4ccc3c2cc1OC)OCO5 [Nitidine (chloride)] (2 µM),0
8,N#Cc1ccc2ncnc(NC3CCC(N4CCOCC4)CC3)c2c1 (centres undefined) (10 µM),0
9,COc1ccc2c(c1O)OC(C)(C)c1c-2ccc2c1C(=O)N(c1ccc(C(=O)c3ccccc3)cc1)C2=O [Ampkinone] (10 µM),0
10,CC1=C2C(=O)O[C@@H](c3ccoc3)[C@]2(C)CCC1 [Fraxinellone] (10 µM),0
11,CS(=O)(=O)c1ccc(-c2cnc(N)c(C(=O)Nc3ccccc3)n2)cc1 (10 µM),0
12,O=C(NC(NC(=S)Nc1ccc(F)c([N+](=O)[O-])c1)C(Cl)(Cl)Cl)C(c1ccccc1)c1ccccc1 (centres undefined) (10 µM),0
13,COc1cc(C(N)=O)nc(-c2cccc(C#C[C@]3(O)CCN(C)C3=O)c2)c1 (10 µM),0
14,O=C(Nc1cc(Oc2cc(F)c(NC(=O)C3(C(=O)Nc4ccc(F)cc4)CC3)cc2F)ccn1)C1CC1 [Altiratinib] (10 µM),0
15,COc1ccc(Cl)cc1NC(=O)Nc1cc(C)nc2ccccc12 (2.5 µM),0
16,COc1ccc(CC(=O)Nc2nc3c(s2)CCc2ccccc2-3)cc1OC (10 µM),0
17,N[C@H](Cc1c[nH]c2ccccc12)C(=O)N/N=C/c1ccc2nccnc2c1 [Rhosin (hydrochloride)] (10 µM),0
18,CC(C)(C)c1ccc(S(=O)(=O)Nc2ccc(-n3ccnc3)cc2)cc1 (10 µM),0
19,Cc1ccc(-c2c(C(=O)CF)n(CCCO)c3ncnc(N)c23)cc1 (10 µM),0

# Of the compounds above, 7 contain an aryl methoxy group:
row,SMILES,number of time points
16,CNCc1ccccc1-c1csc([C@@H](C)Nc2nc(C)nc3cc(OC)c(OC)cc23)c1 (2.5 µM),0
17,COc1ncc(-c2nc(N3CCOCC3)nc3c(CN4CCC(C(C)(C)O)CC4)cc(F)cc23)cc1NS(C)(=O)=O [Linperlisib] (10 µM),0
7,COc1cc2c[n+](C)c3c4cc5c(cc4ccc3c2cc1OC)OCO5 [Nitidine (chloride)] (2 µM),0
9,COc1ccc2c(c1O)OC(C)(C)c1c-2ccc2c1C(=O)N(c1ccc(C(=O)c3ccccc3)cc1)C2=O [Ampkinone] (10 µM),0
13,COc1cc(C(N)=O)nc(-c2cccc(C#C[C@]3(O)CCN(C)C3=O)c2)c1 (10 µM),0
15,COc1ccc(Cl)cc1NC(=O)Nc1cc(C)nc2ccccc12 (2.5 µM),0
16,COc1ccc(CC(=O)Nc2nc3c(s2)CCc2ccccc2-3)cc1OC (10 µM),0
